Data taken from paper PMC6037669, “Optimization of a MT1-MMP-targeting Peptide and Its Application in Near-infrared Fluorescence Tumor Imaging” (Scientific Reports, 2018).
Results are given in words; binding and its absence hold for the method and conditions named.

What follows are binders tested against recombinant human MT1-MMP catalytic domain (human) (UniProt P50281) (assay: condition: only with free excess peptide (1 mmol/L) added; atomic force microscopy (single-molecule recognition force spectroscopy); peptide covalently on the AFM tip through NHS-PEG18-aldehyde; MT1-MMP immobilised on APTES-treated mica; PBS; 25 °C; control with free excess peptide (1 mmol/L); both purified).

Row | binding | Binder
1 | no binding | HWKKLHNTKTFL [MT1-AF7p-H4K]
2 | no binding | HWKRLHNTKTFL [MT1-AF7p-H4R]
3 | no binding | HWKHLHNTKTFL [MT1-AF7p]
